PMC12040169 (PLOS Biology, 2025)
Some of the results follow.

Test system: T1, CTL2-GFP (C. trachomatis L2/434/Bu, GFP-expressing)
T1 construct: L2/434/Bu, GFP-expressing
Set-up: species or system HeLa; Intracellular C. trachomatis growth in HeLa cells, bulk GFP fluorescence relative to DMSO
Settings: bulk GFP, single well; 28.5 h, 10 µM; inhibitor

Going from O=C(Cc1cccc2ccccc12)Nc1ccc(Br)cc1C(=O)O [CBK268286] to CC(=O)c1cccc(NC(=O)c2cccn(Cc3ccc(C)cc3)c2=O)c1 [CBK294427], the “% of control remaining” value falls from 120.69% to 101.125%.

First: CC1CCN(S(=O)(=O)N2CCCC2c2cccc(F)c2)CC1 (stereo not drawn) [CBK281957]
Second: COC(=O)C1CCN(S(=O)(=O)c2ccccc2[N+](=O)[O-])CC1 [CBK264393]
The “% of control remaining” value of the first is higher: 111.73% for the first, 85.783% for the second.

Compared with Cn1cc(CC(=O)N2CCN(c3ccccc3)CC2)c2ccccc21 [CBK200168], Cn1c(NC(=O)COc2ccccc2)nc2ccccc21 [CBK269783] is lower in “% of control remaining” value: 108.947% for the first, 90.8526% for the second.

Going from C1CN=C(SCCCSC2=NCCCN2)NC1 [CBK278210B] to c1ccc2c(c1)OCC(COc1nccc(N3CCCNCC3)n1)O2 (stereo not drawn) [CBK085471], the “% of control remaining” value falls from 122.699% to 96.2045%.

First: Cc1ccc(NC(=O)Cn2cnc3c2c(=O)n(C)c(=O)n3C)nc1 [CBK133463]
Second: CCOC(=O)c1[nH]c2ccccc2c1NC(=O)CN1C(=O)CSC1=O [CBK160163]
The “% of control remaining” value of the first is higher: 128.58% for the first, 85.2275% for the second.

Compared with Cc1nc2ccccc2c2c1C(=O)N(c1cccc(C(=O)OCC(=O)c3ccccc3Cl)c1)C2=O [CBK265505], Cc1ccc(-n2nc(-c3ccc(NC(=O)c4ccccc4)cc3)cc2NC(=O)c2ccccc2)cc1 [CBK261265] is higher in “% of control remaining” value: 100% for the first, 104.831% for the second.

Going from COc1ccc(NC(=O)CSc2nsc(SCC(=O)Nc3ccc(OC)cc3)n2)cc1 [CBK008918] to CCOCCCNC(=O)c1ccc(-c2cc(Oc3ccc(OC)cc3)ncn2)cc1 [CBK291209], the “% of control remaining” value falls from 116.239% to 93.0181%.

First: Cc1ccc(OCc2occc2C(=O)N2CCCCC(N)C2)cc1 (stereo not drawn) [CBK306840]
Second: CC(C)(C)C(=O)N1CCCC(c2cc3cccnc3[nH]2)C1 (stereo not drawn) [CBK284945]
The “% of control remaining” value of the first is higher: 141.869% for the first, 93.3217% for the second.

First: COc1cccc(CCN2CCC(C(=O)NC(c3ccc(F)cc3)c3nc(OC)cc(OC)n3)CC2)c1 (stereo not drawn) [CBK148089]
Second: COc1ccc(-c2nc(NC(=O)Cc3ccc(N(C)C)cc3)cnc2-c2ccc(F)cc2)cn1 [CBK037582]
The “% of control remaining” value of the first is higher: 132.417% for the first, 117.227% for the second.

First: N#CCCN(CC1CCCO1)S(=O)(=O)c1ccc(OC(F)(F)F)cc1 (stereo not drawn) [CBK044405]
Second: N#Cc1nc(COc2ccc(Br)cc2)oc1NC1CC1 [CBK266470]
The “% of control remaining” value of the first is lower: 124.897% for the first, 129.213% for the second.

Going from Cc1c(C(=O)N(C)Cc2nc3ccccc3s2)nnn1C1CCNCC1 [CBK306501C] to Cc1n[nH]c(-c2ccccc2NC(=O)Cc2sc(C)nc2-c2cccs2)n1 [CBK297737], the “% of control remaining” value falls from 117.977% to 108.925%.

Compared with O=C(O)c1cccc(/N=C/c2ccc(/C=N/c3cccc(C(=O)O)c3)cc2)c1 [CBK261088], CCOC(=O)C1CC1CN1CCCN(S(=O)(=O)c2ccc(C(=O)c3ccccc3)cc2)CC1 (stereo not drawn) [CBK063028] is lower in “% of control remaining” value: 114.212% for the first, 102.031% for the second.

Compared with O=C(O)CSc1ccccc1[N+](=O)[O-] [CBK111324], COc1ccccc1N1CCN(C(=O)CC2(CC(=O)O)CCCC2)CC1 [CBK296137] is lower in “% of control remaining” value: 108.41% for the first, 108.039% for the second.

Compared with CCOC(=O)c1c(NC(=S)NCc2ccccn2)sc2c1CCCCC2 [CBK266954], Cc1cc2ncn(CC(=O)NCc3ccccc3)c2cc1C [CBK200213] is lower in “% of control remaining” value: 138.52% for the first, 63.4125% for the second.

First: O=C(Nc1cccc(Cl)c1Cl)c1cnc2n(c1=O)CCS2 [CBK287380]
Second: CC(=O)Nc1cccc(-c2ccc(N3CCN(CCN(C)C)CC3)nc2)c1 [CBK036857]
The “% of control remaining” value of the first is lower: 112.231% for the first, 198.667% for the second.

First: CC(=O)c1ccc(-c2nccnc2N(C)Cc2ccccc2)s1 [CBK037504]
Second: C1=Nn2c(nnc2-c2ccncc2)SC(c2ccccc2)=C1 [CBK288535]
The “% of control remaining” value of the first is higher: 165.261% for the first, 122.34% for the second.

First: O=C1NCCNC(=O)C2(C/C=C/COc3ccccc31)CCCNC2 (stereo not drawn) [CBK292171]
Second: O=C1COc2ccccc2C/C=C/CC2(CCN(CC3CCOCC3)CC2)CN1 [CBK292128]
The “% of control remaining” value of the first is lower: 111.179% for the first, 128.213% for the second.

First: OC(CN1CCC(O)(c2ccc(F)cc2)CC1)c1ccc(Cl)cc1 (stereo not drawn) [CBK283311]
Second: COc1ccc(Cl)cc1N1CCN(Cc2ccc(C(C)C)cc2)CC1 [CBK126407]
The “% of control remaining” value of the first is higher: 117.601% for the first, 97.4664% for the second.

Compared with Nc1ncnc(NCCc2c[nH]c3ccccc23)c1[N+](=O)[O-] [CBK267283], FC(F)(F)c1ccnc(OCCc2c[nH]c3ccccc23)n1 [CBK116625] is higher in “% of control remaining” value: 126.134% for the first, 138.784% for the second.

Going from CCCCC(=O)NC1CCN(C(=O)c2cccc(C#N)c2)CC1 [CBK306309] to CCOc1cc(NC2CCN(C(=O)C(C)(C)C3CCCC3)CC2)ncn1 [CBK304430], the “% of control remaining” value falls from 101.179% to 92.1176%.

Going from CCCCOC(=O)CCc1nc2ccccc2nc1O [CBK264523] to CC(=O)N1CCN(C(=O)C(C)S(=O)(=O)c2ccccc2F)CC1 (stereo not drawn) [CBK305603], the “% of control remaining” value rises from 100% to 138.466%.

Compared with Cc1ccc(S(=O)(=O)N2CCC(C(=O)NC3(C(=O)O)CCCCC3)CC2)cc1 [CBK295644], Cc1cc(C)n(C(C)CC(=O)N2CCCCC2CCN2CCCC2)n1 (stereo not drawn) [CBK282078] is lower in “% of control remaining” value: 140.036% for the first, 121.833% for the second.

First: CN1CCN(c2nc(-c3ccco3)cn3ccnc23)CC1 [CBK038045]
Second: Cc1cc(Cl)cc(Br)c1OCCN1CCN(C)CC1 [CBK269668C]
The “% of control remaining” value of the first is higher: 135.764% for the first, 133.078% for the second.

Going from CCN(CC)C(=O)CN1CCC(Oc2nccnc2OCCN2CCOCC2)CC1 [CBK082928] to CC(C)CNC(=O)N1CCN(CCN2CCOCC2)CC1 [CBK155826], the “% of control remaining” value falls from 116.121% to 107.478%.

First: COc1cc(/C=C/c2cc(C(F)(F)F)[nH]c(=O)n2)c(Cl)cc1O [CBK287936]
Second: COC(=O)c1cccc(OCC(O)Cn2ccnc2)c1 (stereo not drawn) [CBK307408]
The “% of control remaining” value of the first is higher: 102.224% for the first, 99.9615% for the second.

With COc1ccc(-c2nnc(SCc3csc(Nc4ccccc4)n3)n2-c2ccccc2)cc1 [CBK265205] the “% of control remaining” value was 128.643%.
